PubChem BioAssay AID686943, Drosophila RNAi Screening Center – 2013
The screen tested about 23,000 reagents; this is a random part of those with a known target gene and a result. 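Extra replicates exist only for a retested subset of genes; insulin dose and duration not given; both raised and lowered dpERK matter.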 A plus sign joins genes that one reagent is predicted to hit. Not all columns of the deposit are shown. Reagent sequences are not shown. The record does not give: the amount of reagent, the time to read-out.

- Test: 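Fly genes whose loss alters ERK activation after insulin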 (primary screen)
- Cells: Drosophila S2R+ haemocyte-like cells expressing YFP-tagged ERK (Rolled)
- Reagents: long dsRNA against Drosophila genes
- Challenge: insulin stimulation versus unstimulated cells; dose and duration not given
- Measured: 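Per-plate z-scores of phospho-ERK immunostaining normalised to YFP-tagged ERK, measured with and without insulin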
- Reading the numbers: replicate 1, z-score of dpERK with insulin: higher = more active ERK per ERK-YFP after insulin

replicate 1, z-score of dpERK with insulin, by gene and reagent
RhoGAP19D: DRSC20499 1.99; DRSC20500 -0.28
CG12213: DRSC14478 0.14; DRSC22109 0.08
CG12483: DRSC08278 -0.32
CG43342: DRSC13561 1.8
CG4598: DRSC02763 -0.66
CR12628 + Mgstl: DRSC03702 0.07; DRSC20568 -0.11
boly: DRSC21629 0.16
Mco1: DRSC02720 0.61
Ciao1: DRSC06170 0.49
org-1: DRSC18810 -1.37
Wdr62: DRSC00081 -0.19; DRSC00082 -0.47; DRSC00701 -0.35; DRSC21913 -0.04
knk: DRSC15993 0.33
CG34050 (retired record): DRSC09067 -2.03
cocoon: DRSC10916 -0.4
CG15185: DRSC12565 0.32
CG3355: DRSC00598 -0.6
Ets21C: DRSC00751 -0.26
dia: DRSC03519 -0.51
Gr64d + Gr64e: DRSC08446 1.37
Pxn: DRSC08685 0.97
tsl: DRSC17090 -0.11
Klp64D: DRSC11204 0.54
Liprin-alpha: DRSC02132 -0.21
lncRNA:CR43314: DRSC01216 0.7; DRSC21354 -0.57
CG32284: DRSC08025 -0.71
CG10005: DRSC14172 0.14
Coq3: DRSC03168 0.05
CG4953: DRSC02792 -0.56
RpL18A: DRSC07538 -2.66
CG17477: DRSC15239 -0.5
CG17121: DRSC15176 2.28
CG11251: DRSC09825 -0.54
NO66: DRSC18252 -0.39
CHMP2B: DRSC10436 0.05
CycJ: DRSC08653 0.08
CG13912: DRSC08381 -0.42
Dtg: DRSC15998 0.69
CG18130: DRSC19790 0.05
ND-20L: DRSC15414 0.76
cass: DRSC01850 -0.35
CG31128: DRSC13675 0.31
CG11269: DRSC04094 0.78
ex: DRSC00817 0.36
Fili: DRSC03907 0.17; DRSC04132 0.59; DRSC04445 -0.12
Syp: DRSC13444 0.23; DRSC15286 -0.05
Vps15: DRSC16553 0.32
SMC6: DRSC15829 1.43

Quoted from above, 9 entries:
replicate 1, z-score of dpERK with insulin, by gene and reagent
CG34050 (retired record): DRSC09067 -2.03
cocoon: DRSC10916 -0.4
CG15185: DRSC12565 0.32
CG3355: DRSC00598 -0.6
Ets21C: DRSC00751 -0.26
dia: DRSC03519 -0.51
Gr64d + Gr64e: DRSC08446 1.37
Pxn: DRSC08685 0.97
tsl: DRSC17090 -0.11
